Source: PubChem BioAssay AID2685 (National Center for Advancing Translational Sciences (NCATS), 2010)
Some of the results follow. Shown are side measurements of this screen, not its main read-out; they come without a call. Compounds called inactive in the main read-out are mostly missing here. Potencies come from curve fits of mixed quality, noted in brackets.

Assay: qHTS Assay for Lipid Storage Modulators in Drosophila S3 Cells;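 as to cell number change: cells counted by Cell Tracker Red CMTPX staining in the red channel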
Settings: BODIPY lipid droplet fluorescence, 18-24 h; for cell number change: measured here: cell count max response, cells fed with added oleic acid
Summary of the method: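 Laser-scanning cytometry quantifies lipid droplet accumulation (500–530 nm total intensity; droplet/cell object ratio) in oleic acid-fed (400 uM added) Drosophila S3 cells treated with a concentration series. 20 uM Triacsin C defined 100% inhibition.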

[1] = measured here: cell number channel AC50, cells fed with added oleic acid
[2] = measured here: lipid fluorescence (Fed channel) AC50, cells fed with added oleic acid

SMILES	cell number change [%]	AC50 [1]	AC50 [2]
CCCCN(C(=O)CSc1nnnn1C)C1CCS(=O)(=O)C1 (stereo not given)	-6.46	2.91 µM [falling, single point]	
C/C(=N\NS(=O)(=O)c1ccc(C)cc1)c1ccc(Br)s1	-26.5		14.6 µM [falling, partial curve]
O=C(OCc1cnc(Cl)s1)c1c(F)cccc1F	29		2.59 µM [rising, partial curve]
COc1ccc(NS(=O)(=O)c2ccc(S(=O)(=O)N(C)C)cc2)cc1S(N)(=O)=O			0.116 µM [rising, full curve, poor fit]
COc1cc(/C=N/O)ccc1OCc1ccc([N+](=O)[O-])cc1			6.51 µM [falling, single point]
CCCC(=O)Nc1ccc(C(=O)N/N=C/c2ccc([N+](=O)[O-])o2)cc1			7.31 µM [falling, full curve, poor fit]
COc1ccccc1CN1CC(C(=O)NCCC2=CCCCC2)CCC1=O (stereo not given)			29.1 µM [falling, single point]
Cn1cccc1-c1cc(C(=O)O)[nH]n1	-31.5	18.4 µM [falling, single point]	1.3 µM [falling, full curve]
CCOc1ccccc1-n1cnc(C#N)c1N	-16.6		0.794 µM [falling, full curve, poor fit]
CC(C)N(Cc1ccccc1)C(=O)COC(=O)c1ccccc1SCC(=O)N1CCCC1	-0.623	3.26 µM [falling, single point]	0.0231 µM [falling, full curve, poor fit]
Cc1csc(SCC(=O)Nc2ccccc2)n1	14.5		
Fc1ccc(-c2csc(Nc3ccccn3)n2)cc1			4.11 µM [rising, single point]
CCCn1c(SCC(=O)NC)nnc1C(C)C	13.6		1.46 µM [rising, partial curve]
CCCSC(=S)c1c(C)[nH]n(-c2ccccc2)c1=O	-20		10.3 µM [falling, partial curve]
Cc1cc(C)n2[nH]c(=O)c(N=Nc3ccc(S(N)(=O)=O)cc3)c2n1	-9.24		29.1 µM [falling, single point]
Cc1c(CC(=O)O)c(=O)oc2c(C)c3occ(-c4ccc(F)cc4)c3cc12			29.1 µM [rising, single point]
COc1cc2c(cc1OC)CN(CC(=O)Nc1ccc(C)c(S(=O)(=O)N3CCOCC3)c1)CC2	24.5	0.82 µM [rising, partial curve, poor fit]	18.4 µM [falling, single point]

Reformatted: results already given.
COc1ccccc1CN1CC(C(=O)NCCC2=CCCCC2)CCC1=O (stereo not given)
  AC50 [2]: 29.1 µM [falling, single point]
Cn1cccc1-c1cc(C(=O)O)[nH]n1
  cell number change [%]: -31.5; AC50 [1]: 18.4 µM [falling, single point]; AC50 [2]: 1.3 µM [falling, full curve]
